Experimental data published in patent US20210380703A1.
Positions count from the first letter of the chain named. These are yes or no findings as the source states them, for the method shown. Sequences can lack the tags named with a protein.

B1: 367_H01 (antibody, V domains shown)
VH: EVQLLESGGGLVQPGGSLRLSCAASGFTFDSYGMNWVRQAPGKGLEWVSGINYNGGYKSYADSVKGRFTISRDNSKNTLYLQMNSLRAEDTAVYYCARAANWHDTALDYWGQGTLVTVSS
VL: DIQMTQSPSSLSASVGDRVTITCRASQSILTYLNWYQQKPGKAPKLVIYAATSRASGVPSRFSGSGSGTDFTLTISSLQPEDFATYYCQQSYDNPLTFGGGTKVEIK
B2: 368_A12 (antibody, V domains shown)
VH: B1 VH with G33S, N35H, G50S, G55S, S59G
VL: B1 VL with N94S
B3: 368_B10 (antibody, V domains shown)
VH: B1 VH with N35H, S49A, G50S, K58T
VL: B1 VL with Y92D, D93E, N94L
B4: 368_F10 (antibody, V domains shown)
VH: B1 VH with D30S, S49A, G55S, K58T, A106H
VL: B1 VL with L30V, T31S, L33V, V47L, N94T
B5: 369_B03 (antibody, V domains shown)
VH: B1 VH with D30S, N35H, S49A, K58T
VL: B1 VL with L33V, R54L, D93E, N94L
B6: 369_H03 (antibody, V domains shown)
VH: B1 VH with D30S, G33S, N35H, S49A, G50S, G55S
VL: B1 VL with L30V, T31S, V47L, A51T, N94T
B7: 370_B01 (antibody, V domains shown)
VH: B1 VH with S31D, N35H
VL: B1 VL with T31S, L33V, V47L, A50V, T52S, D93S, N94L
B8: 371_D07 (antibody, V domains shown)
VH: B1 VH with S31D, S49A, G50N, S59G, A106H
VL: B1 VL with D93E, N94L
B9: 372_B11 (antibody, V domains shown)
VH: B1 VH with D30S, G33S, N35H, S49A, G55S, K58T, A106H
VL: B1 VL with L33V, R54L, N94T
B10: 373_E11 (antibody, V domains shown)
VH: B1 VH with N35H, S49A, G50S, K58T
VL: B1 VL with L30V, T31S, N94S
B11: 365_B10 (antibody, V domains shown)
VH: B1 VH with S31D, G33S, N35H, S49A, G50S, G55S, S59G
VL: B1 VL with T31R, V47L, Y92D, D93N, N94L
B12: 374_B02 (antibody, V domains shown)
VH: B1 VH with G33S, N35H, S49A, G55S, K58T, A106H
VL: B1 VL with L30I, T31S, V47L, N94S
B13: 375_A04 (antibody, V domains shown)
VH: B1 VH with S49A
VL: B1 VL with A50Y, A51V, T52N, S53N, R54L, A55P, D93N, N94S
B14: 375_A11 (antibody, V domains shown)
VH: B1 VH with D30S, S31D, N35H, G50S, G55S
VL: B1 VL with L30V, T31S, V47L, A50Y, A51V, S53N, R54L
B15: 376_G02 (antibody, V domains shown)
VH: B1 VH with D30S, S31D, K58T
VL: B1 VL with L30S, T31R, R54L
B16: 365_G06 (antibody, V domains shown)
VH: B1 VH with N35H, S49A, K58T, N101T, A106H
VL: B1 VL with T31S, V47L, R54L, Y92D, D93S, N94T
B17: 367_F10 (antibody, V domains shown)
VH: B1 VH with G55S, K58T, N101T, A106H
VL: B1 VL with V47L, N94T
B18: 368_B12 (antibody, V domains shown)
VH: B1 VH with N35H, G55S, K58T, N101T, A106H
VL: B1 VL with L30V, T31S, L33V, V47L, N94L
B19: 369_A12 (antibody, V domains shown)
VH: B1 VH with D30S, G33S, N35H, S49A, G50S, G55S, K58T, S59G, N101T, A106H
VL: B1 VL with V47L, A55H, N94L
B20: 369_E03 (antibody, V domains shown)
VH: B1 VH with D30S, N35H, S49A, K58T, N101T, A106H
VL: B1 VL with T31S, L33V, V47L, R54L, D93E
B21: 370_B06 (antibody, V domains shown)
VH: B1 VH with D30S, N35H, S49A, K58T, N101T, A106H
VL: B1 VL with L30V, T31S, L33V, D93E, N94T
B22: 371_B11 (antibody, V domains shown)
VH: B1 VH with D30S, G33S, N35H, S49A, G50S, G55S, K58T, N101T, A106H
VL: B1 VL with V47L, D93E, N94L
B23: 371_C02 (antibody, V domains shown)
VH: B1 VH with N35H, S49A, G55S, K58T, S59G, N101T, A106H
VL: B1 VL with L33V, V47L, T52S, R54L, A55Q, N94T
B24: 373_D11 (antibody, V domains shown)
VH: B1 VH with D30S, N35H, S49A, K58T, N101T, A106H
VL: B1 VL with L33V, V47L
B25: 373_G06 (antibody, V domains shown)
VH: B1 VH with D30S, N35H, S49A, G50S, G55S, K58T, S59G, N101T, A106H
VL: B1 VL with T31S, L33V, V47L, R54L, D93N, N94L
B26: 376_D08 (antibody, V domains shown)
VH: B1 VH with S49A, G50N, G55S, N101T
VL: B1 VL with A50Y, T52N, S53N, A55P, D93S
B27: 376_F09 (antibody, V domains shown)
VH: B1 VH with G33S, N35H, G50S, N101T, A106H
VL: B1 VL with L33V, V47L, A51V, N94T
B28: 374_B03 (antibody, V domains shown)
VH: B1 VH with G33S, K58T, A99G
VL: B1 VL with N94S
B29: 374_C01 (antibody, V domains shown)
VH: B1 VH with G55S, A99G
VL: B1 VL with V47L, D93E, N94T
B30: 374_C09 (antibody, V domains shown)
VH: B1 VH with G50S, S59G, A99G, A106H
VL: B1 VL with L30V, T31S, D93E, N94L
B31: 374_D05 (antibody, V domains shown)
VH: B1 VH with G33S, G55S, K58T, S59G, A99G, A106H
VL: B1 VL with V47L, N94T
B32: 374_G08 (antibody, V domains shown)
VH: B1 VH with G33S, K58T, A99G
VL: B1 VL with L33V, N94S
B33: 375_A07 (antibody, V domains shown)
VH: B1 VH with G33S, G50S, G55S, K58T, S59G, A99G, A106H
VL: B1 VL with V47L, N94T
B34: 375_A12 (antibody, V domains shown)
VH: B1 VH with D30S, G33S, G55S, A99G
VL: B1 VL with T31S, A51V, D93E, N94T

biological target: T1, His-tagged Human ACVR2B (human) (UniProt Q13705); experiment: ELISA, coated His-tagged antigen, 10 pt
T1 sequence (looked up): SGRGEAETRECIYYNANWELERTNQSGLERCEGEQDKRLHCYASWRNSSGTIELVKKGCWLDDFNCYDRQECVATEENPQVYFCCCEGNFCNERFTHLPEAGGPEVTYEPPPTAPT

binding, no binding (tested: 1 uM):
B1, B2, B3, B4, B5, B6, B7, B8, B9, B10, B11, B12, B13, B14, B15, B16, B17, B18, B19, B20, B21, B22, B23, B24, B25, B26, B27

biological target: T2, His-tagged Mouse ACVR2B (mouse) (UniProt P27040); experiment: ELISA, coated His-tagged antigen, 10 pt
T2 sequence (looked up): T1 sequence (looked up) with A101P

binding, no binding (tested: 1 uM):
B1, B2, B3, B4, B5, B6, B7, B8, B9, B10, B11, B12, B13, B14, B15, B16, B17, B18, B19, B21, B22, B23, B24, B25, B26, B27

biological target: T1, His-tagged Human ACVR2B (human); experiment: ELISA, coated antigen, 10 pt

binding, no binding (tested: 1 uM):
B28, B29, B30, B31, B32, B33, B34

biological target: T2, His-tagged Mouse ACVR2B (mouse); experiment: ELISA, coated antigen, 10 pt

binding, no binding (tested: 1 uM):
B28, B29, B30, B31, B32, B33, B34
